These are yes or no findings as the source states them, for the method shown. Some binding calls cover weakened binding; strength is not graded here. Blank lines part the entries; values can stand above or below the binder they belong to.
What was measured:
[1] = target: T1, NfL in clinical samples (临床样本中的NfL) (UniProt P07196); test: sandwich chemiluminescence on clinical samples P1-P4
T1 sequence (looked up): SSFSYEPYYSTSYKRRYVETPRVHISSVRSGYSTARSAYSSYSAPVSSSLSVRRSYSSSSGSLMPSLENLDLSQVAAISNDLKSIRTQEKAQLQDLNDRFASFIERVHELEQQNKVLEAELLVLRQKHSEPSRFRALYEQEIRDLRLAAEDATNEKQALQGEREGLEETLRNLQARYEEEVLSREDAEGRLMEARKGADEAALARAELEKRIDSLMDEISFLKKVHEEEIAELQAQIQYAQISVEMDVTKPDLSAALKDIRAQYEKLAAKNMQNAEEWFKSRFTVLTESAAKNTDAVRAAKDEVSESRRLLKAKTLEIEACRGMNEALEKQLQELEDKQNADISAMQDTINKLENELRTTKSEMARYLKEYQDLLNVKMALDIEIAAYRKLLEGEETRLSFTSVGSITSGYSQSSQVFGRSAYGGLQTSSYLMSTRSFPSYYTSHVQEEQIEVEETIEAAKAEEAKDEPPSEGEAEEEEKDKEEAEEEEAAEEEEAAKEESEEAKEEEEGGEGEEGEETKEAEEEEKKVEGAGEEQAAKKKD

[2] = target: T1, NfL in clinical samples (临床样本中的NfL); test: sandwich chemiluminescence on clinical samples P1-P4, capture antibody on beads

binding [1]: binds
B1: Anti-NfL-rRmab-1 (antibody, V domains shown)
VH: QSVEESGGRLVTPGTPLTLTCTASGFSLSIHDMSWVRQAPGKGLEWIGLISSNNNTYYASWAKGRFTISKTSTTVDLKITSPTTEDTATYFCARGGFSTDLWGPGTPVTVSS
VL: DVVMTQTPASVSEPVGGTVTIKCQASQSIYTYLSWYQQKPGQPPKLLIYGASNLASGVSSRFKGSGSGTDYTLTISGVQCDDAATYYCQCTYFSSSYVGGFGGGTEVVVK

binding [2]: binds
B2: Rabbit anti-NfL mAb (antibody, V domains shown)
VH: QSVEESGGRLVTPGTPLTLTCTASGIDLSNYAMNWVHQAPGKGLEWIAIIYASGSTYYTTWAKGRFTISKTSSTTVDLKITSPTTEDTATYFCARALSMTNVYTFNIWGPGTLVTVSS
VL: DVVMTQTPASVSEPVGGTVTIKCQASQNIYNNLAWYQQKPGQPPKLLIYKASTLASGVSSRFKGSGSGTEFTLTISDLECADAATYYCQCTYGSSYVAFGGGTEVVVK
